US12729225B2, “Non-canonical SWI/SNF complex and uses thereof” (Dana-Farber Cancer Institute, Inc., priority 2018, dated 2026)

B1: SETSIP (protein, UniProt P0DME0 1-292, looked up)
Protein SETSIP: MAPKRQSPLPLQKKKPRPPPALGLEETSASAGLPKKGEKEQQEAIEHIDEVQNEIDRLNEQDSEEILKVEQKYNKLRQPFFQKRSELIAKIPNFGVTTFVNHPQVSSLLGEEDEEALHYLTKVEVTEFEDIKSGYRIDFYFDENPYFENKVFSKEFHLNESGDPSSKSTKIKWKSGKDVTKRSSQTQNKASRKRQHEEPESFFTWFTDHSDAGADELEEVIKDDIWPNPLQYYLVPDMDDEEGGEDDDDDDDDGDEGEEELEDIDEGDEDEGEEDEDDDEGEEGEEDEGEDD
B2: TMTC3 (protein, UniProt Q6ZXV5 1-915, looked up)
Protein …: MANINLKEITLIVGVVTACYWNSLFCGFVFDDVSAILDNKDLHPSTPLKTLFQNDFWGTPMSEERSHKSYRPLTVLTFRLNYLLSELKPMSYHLLNMIFHAVVSVIFLKVCKLFLDNKSSVIASLLFAVHPIHTEAVTGVVGRAELLSSIFFLAAFLSYTRSKGPDNSIIWTPIALTVFLVAVATLCKEQGITVVGICCVYEVFIAQGYTLPLLCTTAGQFLRGKGSIPFSMLQTLVKLIVLMFSTLLLVVIRVQVIQSQLPVFTRFDNPAAVSPTPTRQLTFNYLLPVNAWLLLNPSELCCDWTMGTIPLIESLLDIRNLATFTFFCFLGMLGVFSIRYSGDSSKTVLMALCLMALPFIPASNLFFPVGFVVAERVLYVPSMGFCILVAHGWQKISTKSVFKKLSWICLSMVILTHSLKTFHRNWDWESEYTLFMSALKVNKNNAKLWNNVGHALENEKNFERALKYFLQATHVQPDDIGAHMNVGRTYKNLNRTKEAEESYMMAKSLMPQIIPGKKYAARIAPNHLNVYINLANLIRANESRLEEADQLYRQAISMRPDFKQAYISRGELLLKMNKPLKAKEAYLKALELDRNNADLWYNLAIVHIELKEPNEALKKNFNRALELNPKHKLALFNSAIVMQESGEVKLRPEARKRLLSYINEEPLDANGYFNLGMLAMDDKKDNEAEIWMKKAIKLQADFRSALFNLALLYSQTAKELKALPILEELLRYYPDHIKGLILKGDILMNQKKDILGAKKCFERILEMDPSNVQGKHNLCVVYFEEKDLLKAERCLLETLALAPHEEYIQRHLNIVRDKISSSSFIEPIFPTSKISSVEGKKIPTESVKEIRGESRQTQIVKTSDNKSQSKSNKQLGKNGDEETPHKTTKDIKEIEKKRVAALKRLEEIERILNGE
B3: ASNS (protein, UniProt P08243 2-561, looked up)
Asparagine synthetase …: CGIWALFGSDDCLSVQCLSAMKIAHRGPDAFRFENVNGYTNCCFGFHRLAVVDPLFGMQPIRVKKYPYLWLCYNGEIYNHKKMQQHFEFEYQTKVDGEIILHLYDKGGIEQTICMLDGVFAFVLLDTANKKVFLGRDTYGVRPLFKAMTEDGFLAVCSEAKGLVTLKHSATPFLKVEPFLPGHYEVLDLKPNGKVASVEMVKYHHCRDVPLHALYDNVEKLFPGFEIETVKNNLRILFNNAVKKRLMTDRRIGCLLSGGLDSSLVAATLLKQLKEAQVQYPLQTFAIGMEDSPDLLAARKVADHIGSEHYEVLFNSEEGIQALDEVIFSLETYDITTVRASVGMYLISKYIRKNTDSVVIFSGEGSDELTQGYIYFHKAPSPEKAEEESERLLRELYLFDVLRADRTTAAHGLELRVPFLDHRFSSYYLSLPPEMRIPKNGIEKHLLRETFEDSNLIPKEILWRPKEAFSDGITSVKNSWFKILQEYVEHQVDDAMMANAAQKFPFNTPKTKEGYYYRQVFERHYPGRADWLSHYWMPKWINATDPSARTLTHYKSAVKA
B4: ADAR (protein, UniProt P55265 1-1226, looked up)
Double-stranded RNA-specific …: MNPRQGYSLSGYYTHPFQGYEHRQLRYQQPGPGSSPSSFLLKQIEFLKGQLPEAPVIGKQTPSLPPSLPGLRPRFPVLLASSTRGRQVDIRGVPRGVHLRSQGLQRGFQHPSPRGRSLPQRGVDCLSSHFQELSIYQDQEQRILKFLEELGEGKATTAHDLSGKLGTPKKEINRVLYSLAKKGKLQKEAGTPPLWKIAVSTQAWNQHSGVVRPDGHSQGAPNSDPSLEPEDRNSTSVSEDLLEPFIAVSAQAWNQHSGVVRPDSHSQGSPNSDPGLEPEDSNSTSALEDPLEFLDMAEIKEKICDYLFNVSDSSALNLAKNIGLTKARDINAVLIDMERQGDVYRQGTTPPIWHLTDKKRERMQIKRNTNSVPETAPAAIPETKRNAEFLTCNIPTSNASNNMVTTEKVENGQEPVIKLENRQEARPEPARLKPPVHYNGPSKAGYVDFENGQWATDDIPDDLNSIRAAPGEFRAIMEMPSFYSHGLPRCSPYKKLTECQLKNPISGLLEYAQFASQTCEFNMIEQSGPPHEPRFKFQVVINGREFPPAEAGSKKVAKQDAAMKAMTILLEEAKAKDSGKSEESSHYSTEKESEKTAESQTPTPSATSFFSGKSPVTTLLECMHKLGNSCEFRLLSKEGPAHEPKFQYCVAVGAQTFPSVSAPSKKVAKQMAAEEAMKALHGEATNSMASDNQPEGMISESLDNLESMMPNKVRKIGELVRYLNTNPVGGLLEYARSHGFAAEFKLVDQSGPPHEPKFVYQAKVGGRWFPAVCAHSKKQGKQEAADAALRVLIGENEKAERMGFTEVTPVTGASLRRTMLLLSRSPEAQPKTLPLTGSTFHDQIAMLSHRCFNTLTNSFQPSLLGRKILAAIIMKKDSEDMGVVVSLGTGNRCVKGDSLSLKGETVNDCHAEIISRRGFIRFLYSELMKYNSQTAKDSIFEPAKGGEKLQIKKTVSFHLYISTAPCGDGALFDKSCSDRAMESTESRHYPVFENPKQGKLRTKVENGEGTIPVESSDIVPTWDGIRLGERLRTMSCSDKILRWNVLGLQGALLTHFLQPIYLKSVTLGYLFSQGHLTRAICCRVTRDGSAFEDGLRHPFIVNHPKVGRVSIYDSKRQSGKTKETSVNWCLADGYDLEILDGTRGTVDGPRNELSRVSKKNIFLLFKKLCSFRYRRDLLRLSYGEAKKAARDYETAKNYFKKGLKDMGYGNWISKPQEEKNFYLCPV
B5: STT3B (protein, UniProt Q8TCJ2 2-826, looked up)
Dolichyl-diphosphooligosacchar …: AEPSAPESKHKSSLNSSPWSGLMALGNSRHGHHGPGAQCAHKAAGGAAPPKPAPAGLSGGLSQPAGWQSLLSFTILFLAWLAGFSSRLFAVIRFESIIHEFDPWFNYRSTHHLASHGFYEFLNWFDERAWYPLGRIVGGTVYPGLMITAGLIHWILNTLNITVHIRDVCVFLAPTFSGLTSISTFLLTRELWNQGAGLLAACFIAIVPGYISRSVAGSFDNEGIAIFALQFTYYLWVKSVKTGSVFWTMCCCLSYFYMVSAWGGYVFIINLIPLHVFVLLLMQRYSKRVYIAYSTFYIVGLILSMQIPFVGFQPIRTSEHMAAAGVFALLQAYAFLQYLRDRLTKQEFQTLFFLGVSLAAGAVFLSVIYLTYTGYIAPWSGRFYSLWDTGYAKIHIPIIASVSEHQPTTWVSFFFDLHILVCTFPAGLWFCIKNINDERVFVALYAISAVYFAGVMVRLMLTLTPVVCMLSAIAFSNVFEHYLGDDMKRENPPVEDSSDEDDKRNQGNLYDKAGKVRKHATEQEKTEEGLGPNIKSIVTMLMLMLLMMFAVHCTWVTSNAYSSPSVVLASYNHDGTRNILDDFREAYFWLRQNTDEHARVMSWWDYGYQIAGMANRTTLVDNNTWNNSHIALVGKAMSSNETAAYKIMRTLDVDYVLVIFGGVIGYSGDDINKFLWMVRIAEGEHPKDIRESDYFTPQGEFRVDKAGSPTLLNCLMYKMSYYRFGEMQLDFRTPPGFDRTRNAEIGNKDIKFKHLEEAFTSEHWLVRIYKVKAPDNRETLDHKPRVTNIFPKQKYLSKKTTKRKRGYIKNKLVFKKGKKISKKTV
B6: JPH1 (protein, UniProt Q9HDC5 1-661, looked up)
Junctophilin-1: MTGGRFDFDDGGTYCGGWEEGKAHGHGICTGPKGQGEYSGSWSHGFEVVGGYTWPSGNTYQGYWAQGKRHGLGVETKGKWMYRGEWSHGFKGRYGVRQSLCTPARYEGTWSNGLQDGYGVETYGDGGTYQGQWAGGMRHGYGVRQSVPYGMATVIRSPLRTSLASLRSEQSNGSVLHDAAAAADSPAGTRGGFVLNFHADAELAGKKKGGLFRRGSLLGSMKLRKSESKSSISSKRSSVRSDAAMSRISSSDANSTISFGDVDCDFCPVEDHVDATTTETYMGEWKNDKRNGFGVSERSNGMKYEGEWANNKRHGYGCTVFPDGSKEEGKYKNNILVRGIRKQLIPIRHTKTREKVDRAIEGAQRAAAMARTKVEIANSRTAHARAKADAADQAALAARQECDIARAVARELSPDFYQPGPDYVKQRFQEGVDAKENPEEKVPEKPPTPKESPHFYRKGTTPPRSPEASPKHSHSPASSPKPLKKQNPSSGARLNQDKRSVADEQVTAIVNKPLMSKAPTKEAGAVVPQSKYSGRHHIPNPSNGELHSQYHGYYVKLNAPQHPPVDVEDGDGSSQSSSALVHKPSANKWSPSKSVTKPVAKESKAEPKAKKSELAIPKNPASNDSCPALEKEANSGPNSIMIVLVMLLNIGLAILFVHFLT
B7: VAPA (protein, UniProt Q9P0L0 2-249, looked up)
Vesicle-associated membrane …: ASASGAMAKHEQILVLDPPTDLKFKGPFTDVVTTNLKLRNPSDRKVCFKVKTTAPRRYCVRPNSGIIDPGSTVTVSVMLQPFDYDPNEKSKHKFMVQTIFAPPNTSDMEAVWKEAKPDELMDSKLRCVFEMPNENDKLNDMEPSKAVPLNASKQDGPMPKPHSVSLNDTETRKLMEECKRLQGEMMKLSEENRHLRDEGLRLRKVAHSDKPGSTSTASFRDNVTSPLPSLLVVIAAIFIGFFLGKFIL
B8: SRSF10 (protein, UniProt O75494 1-262, looked up)
Serine/arginine-rich splicing …: MSRYLRPPNTSLFVRNVADDTRSEDLRREFGRYGPIVDVYVPLDFYTRRPRGFAYVQFEDVRDAEDALHNLDRKWICGRQIEIQFAQGDRKTPNQMKAKEGRNVYSSSRYDDYDRYRRSRSRSYERRRSRSRSFDYNYRRSYSPRNSRPTGRPRRSRSHSDNDRFKHRNRSFSRSKSNSRSRSKSQPKKEMKAKSRSRSASHTKTRGTSKTDSKTHYKSGSRYEKESRKKEPPRSKSQSRSQSRSRSKSRSRSWTSPKSSGH
B9: HMGB3 (protein, UniProt O15347 1-200, looked up)
High mobility group protein B3: MAKGDPKKPKGKMSAYAFFVQTCREEHKKKNPEVPVNFAEFSKKCSERWKTMSGKEKSKFDEMAKADKVRYDREMKDYGPAKGGKKKKDPNAPKRPPSGFFLFCSEFRPKIKSTNPGISIGDVAKKLGEMWNNLNDSEKQPYITKAAKLKEKYEKDVADYKSKGKFDGAKGPAKVARKKVEEEDEEEEEEEEEEEEEEDE

The molecules below were run on mSWI/SNF complexes (assay: mSWI/SNF complex purification with HA-tagged baits and mass spectrometry (peptide counts)). Conditions: 293_HA-BRD7 bait purification, mass spectrometry; total peptide count per identified protein.
Set-up: species or system human

Total, 1:
B1, B2, B3, B4, B5, B6, B7, B8, B9

Same assay, conditions: 293_HA-BRD7 bait purification, mass spectrometry; unique peptide count per identified protein

Unique, 1:
B1, B2, B3, B4, B5, B6, B7, B8, B9
